This is one part of the list. Small differences around the control level are noise.
compound: Cc1nc(Nc2ncc(C(=O)Nc3c(C)cccc3Cl)s2)cc(N2CCN(CCO)CC2)n1 [dasatinib]; experiment: log2 fold change of tryptic peptide abundance, ligand vs vehicle (limited proteolysis) (log2 ratio); higher = more trypsin-susceptible (destabilized); details: ligand concentration: 5 uM; sample: K562 cleared lysate

Amino acid sequences for entries named in this document (tags omitted). A change or cut given only in a name is not applied to a line headed by its entry.
UniProt P26038, whole entry: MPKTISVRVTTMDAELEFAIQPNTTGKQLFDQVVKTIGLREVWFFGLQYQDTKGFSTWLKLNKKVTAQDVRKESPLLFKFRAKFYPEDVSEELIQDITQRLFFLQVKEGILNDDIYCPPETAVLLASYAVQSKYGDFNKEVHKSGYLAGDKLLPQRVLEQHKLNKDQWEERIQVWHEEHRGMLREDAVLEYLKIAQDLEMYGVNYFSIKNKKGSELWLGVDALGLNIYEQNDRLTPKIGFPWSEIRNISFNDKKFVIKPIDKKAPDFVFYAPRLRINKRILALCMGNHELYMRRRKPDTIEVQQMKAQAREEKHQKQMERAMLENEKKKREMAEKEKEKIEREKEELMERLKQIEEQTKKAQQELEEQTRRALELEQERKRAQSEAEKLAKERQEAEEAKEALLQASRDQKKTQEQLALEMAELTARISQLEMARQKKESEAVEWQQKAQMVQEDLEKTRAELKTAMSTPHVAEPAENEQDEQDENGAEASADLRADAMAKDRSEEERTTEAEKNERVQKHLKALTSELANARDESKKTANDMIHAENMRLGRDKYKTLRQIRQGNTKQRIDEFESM
UniProt P17014: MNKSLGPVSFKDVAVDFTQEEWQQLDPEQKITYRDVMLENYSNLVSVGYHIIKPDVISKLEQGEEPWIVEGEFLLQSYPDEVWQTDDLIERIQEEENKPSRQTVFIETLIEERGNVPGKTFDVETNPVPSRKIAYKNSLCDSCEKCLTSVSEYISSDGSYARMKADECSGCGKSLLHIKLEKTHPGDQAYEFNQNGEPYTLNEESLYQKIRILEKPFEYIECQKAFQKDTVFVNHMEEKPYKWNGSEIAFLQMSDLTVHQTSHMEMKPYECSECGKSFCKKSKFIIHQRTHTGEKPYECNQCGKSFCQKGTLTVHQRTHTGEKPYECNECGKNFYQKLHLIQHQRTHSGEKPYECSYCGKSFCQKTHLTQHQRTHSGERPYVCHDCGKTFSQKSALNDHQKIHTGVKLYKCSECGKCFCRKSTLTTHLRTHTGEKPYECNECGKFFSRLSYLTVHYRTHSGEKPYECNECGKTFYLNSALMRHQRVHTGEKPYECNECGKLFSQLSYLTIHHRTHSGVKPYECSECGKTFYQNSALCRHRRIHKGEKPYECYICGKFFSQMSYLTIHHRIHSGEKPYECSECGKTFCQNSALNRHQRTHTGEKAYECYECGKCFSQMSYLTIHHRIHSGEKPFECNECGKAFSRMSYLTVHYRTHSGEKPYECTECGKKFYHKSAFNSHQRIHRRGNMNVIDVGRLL
UniProt P24864, whole entry: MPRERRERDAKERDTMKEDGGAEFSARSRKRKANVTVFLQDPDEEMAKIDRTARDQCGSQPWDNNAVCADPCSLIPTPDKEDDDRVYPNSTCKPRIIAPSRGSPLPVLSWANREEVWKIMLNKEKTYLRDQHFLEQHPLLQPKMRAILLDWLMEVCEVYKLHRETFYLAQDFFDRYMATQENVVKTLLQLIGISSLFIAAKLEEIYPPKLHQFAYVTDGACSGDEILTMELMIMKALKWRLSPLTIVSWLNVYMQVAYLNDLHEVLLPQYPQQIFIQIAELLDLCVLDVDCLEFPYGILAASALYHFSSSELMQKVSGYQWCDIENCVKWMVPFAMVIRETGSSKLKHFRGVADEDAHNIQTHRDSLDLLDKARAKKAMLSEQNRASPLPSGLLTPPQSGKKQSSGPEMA
UniProt P19544: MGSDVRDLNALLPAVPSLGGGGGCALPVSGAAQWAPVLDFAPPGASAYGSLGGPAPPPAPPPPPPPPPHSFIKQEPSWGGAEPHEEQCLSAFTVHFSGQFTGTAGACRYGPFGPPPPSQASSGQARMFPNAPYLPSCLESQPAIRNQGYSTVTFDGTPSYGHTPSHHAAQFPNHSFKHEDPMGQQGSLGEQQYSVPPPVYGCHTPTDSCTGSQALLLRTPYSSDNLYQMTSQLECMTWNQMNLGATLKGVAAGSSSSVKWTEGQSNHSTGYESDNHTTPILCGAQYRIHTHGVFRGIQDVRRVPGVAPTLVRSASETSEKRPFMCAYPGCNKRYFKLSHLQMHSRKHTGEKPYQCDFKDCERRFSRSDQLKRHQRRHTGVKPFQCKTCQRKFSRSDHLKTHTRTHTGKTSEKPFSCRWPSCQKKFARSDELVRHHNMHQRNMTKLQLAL
UniProt P18847: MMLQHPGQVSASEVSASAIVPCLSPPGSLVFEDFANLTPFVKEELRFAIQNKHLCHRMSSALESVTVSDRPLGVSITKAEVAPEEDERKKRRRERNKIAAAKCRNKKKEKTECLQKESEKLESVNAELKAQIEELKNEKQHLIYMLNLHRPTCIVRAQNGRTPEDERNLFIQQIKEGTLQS
UniProt P22557: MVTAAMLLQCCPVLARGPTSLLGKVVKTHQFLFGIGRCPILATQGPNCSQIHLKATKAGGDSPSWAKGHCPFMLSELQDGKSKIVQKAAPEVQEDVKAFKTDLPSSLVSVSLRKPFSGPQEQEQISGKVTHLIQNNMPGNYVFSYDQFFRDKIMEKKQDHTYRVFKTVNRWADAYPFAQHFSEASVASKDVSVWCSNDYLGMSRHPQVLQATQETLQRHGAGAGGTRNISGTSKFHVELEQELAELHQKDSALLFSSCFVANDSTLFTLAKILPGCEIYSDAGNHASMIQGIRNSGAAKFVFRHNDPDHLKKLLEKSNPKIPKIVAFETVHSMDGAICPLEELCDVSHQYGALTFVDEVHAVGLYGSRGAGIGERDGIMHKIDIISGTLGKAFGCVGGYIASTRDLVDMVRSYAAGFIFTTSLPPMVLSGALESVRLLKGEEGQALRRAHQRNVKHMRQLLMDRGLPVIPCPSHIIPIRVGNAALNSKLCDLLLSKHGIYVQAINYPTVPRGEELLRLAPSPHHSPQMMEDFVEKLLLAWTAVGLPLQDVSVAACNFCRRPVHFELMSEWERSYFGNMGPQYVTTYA
UniProt P14316: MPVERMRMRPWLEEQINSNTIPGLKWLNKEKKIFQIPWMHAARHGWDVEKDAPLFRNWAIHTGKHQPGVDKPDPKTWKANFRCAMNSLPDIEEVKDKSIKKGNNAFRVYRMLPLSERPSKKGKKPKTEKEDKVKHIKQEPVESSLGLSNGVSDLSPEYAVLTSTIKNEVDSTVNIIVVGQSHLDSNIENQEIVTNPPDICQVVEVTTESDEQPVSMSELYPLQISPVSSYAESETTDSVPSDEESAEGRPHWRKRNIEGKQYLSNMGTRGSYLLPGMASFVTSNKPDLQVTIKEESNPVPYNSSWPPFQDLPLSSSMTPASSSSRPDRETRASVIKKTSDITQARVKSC
UniProt P15923: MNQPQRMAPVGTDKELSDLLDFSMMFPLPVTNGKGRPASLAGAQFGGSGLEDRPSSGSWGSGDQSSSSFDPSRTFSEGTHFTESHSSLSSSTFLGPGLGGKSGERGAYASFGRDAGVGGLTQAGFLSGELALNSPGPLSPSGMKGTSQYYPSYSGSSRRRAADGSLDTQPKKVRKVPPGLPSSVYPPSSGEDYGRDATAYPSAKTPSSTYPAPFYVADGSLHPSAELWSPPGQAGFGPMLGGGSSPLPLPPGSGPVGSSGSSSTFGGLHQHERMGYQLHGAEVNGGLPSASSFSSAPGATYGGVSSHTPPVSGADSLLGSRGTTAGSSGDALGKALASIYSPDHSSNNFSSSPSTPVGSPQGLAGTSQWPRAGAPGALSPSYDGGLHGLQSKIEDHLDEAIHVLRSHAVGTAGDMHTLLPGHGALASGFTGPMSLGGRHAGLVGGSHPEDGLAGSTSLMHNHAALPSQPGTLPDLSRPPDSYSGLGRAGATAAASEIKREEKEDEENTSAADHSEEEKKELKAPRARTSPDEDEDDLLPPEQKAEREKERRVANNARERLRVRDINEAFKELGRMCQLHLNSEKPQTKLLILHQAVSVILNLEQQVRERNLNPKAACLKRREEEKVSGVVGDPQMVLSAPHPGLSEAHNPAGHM
UniProt P15170, whole entry: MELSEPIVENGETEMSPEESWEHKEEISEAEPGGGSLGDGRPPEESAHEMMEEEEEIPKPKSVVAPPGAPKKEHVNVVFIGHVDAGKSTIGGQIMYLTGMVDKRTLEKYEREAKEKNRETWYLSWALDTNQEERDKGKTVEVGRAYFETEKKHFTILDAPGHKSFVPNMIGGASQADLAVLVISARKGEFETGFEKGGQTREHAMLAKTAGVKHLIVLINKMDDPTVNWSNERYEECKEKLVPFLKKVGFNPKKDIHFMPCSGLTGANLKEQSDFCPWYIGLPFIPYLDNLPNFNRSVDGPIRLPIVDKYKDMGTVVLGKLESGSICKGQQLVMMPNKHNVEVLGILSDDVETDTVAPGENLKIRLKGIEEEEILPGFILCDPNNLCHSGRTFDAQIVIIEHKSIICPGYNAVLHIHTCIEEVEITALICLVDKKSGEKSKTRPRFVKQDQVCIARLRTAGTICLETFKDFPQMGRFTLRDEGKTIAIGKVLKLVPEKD
UniProt P20618: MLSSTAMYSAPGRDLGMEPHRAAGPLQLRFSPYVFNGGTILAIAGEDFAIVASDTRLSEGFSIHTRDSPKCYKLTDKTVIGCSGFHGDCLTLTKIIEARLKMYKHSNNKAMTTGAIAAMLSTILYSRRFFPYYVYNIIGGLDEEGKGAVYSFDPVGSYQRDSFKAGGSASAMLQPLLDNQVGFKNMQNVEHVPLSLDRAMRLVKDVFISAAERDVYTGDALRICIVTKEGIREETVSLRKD
UniProt P15428: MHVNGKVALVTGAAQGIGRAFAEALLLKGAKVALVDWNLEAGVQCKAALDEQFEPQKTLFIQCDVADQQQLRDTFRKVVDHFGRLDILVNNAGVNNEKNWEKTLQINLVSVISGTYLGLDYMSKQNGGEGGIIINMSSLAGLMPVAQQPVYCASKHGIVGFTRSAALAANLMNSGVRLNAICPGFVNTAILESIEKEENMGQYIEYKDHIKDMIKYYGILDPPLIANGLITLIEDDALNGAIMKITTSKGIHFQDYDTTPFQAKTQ
UniProt P22626: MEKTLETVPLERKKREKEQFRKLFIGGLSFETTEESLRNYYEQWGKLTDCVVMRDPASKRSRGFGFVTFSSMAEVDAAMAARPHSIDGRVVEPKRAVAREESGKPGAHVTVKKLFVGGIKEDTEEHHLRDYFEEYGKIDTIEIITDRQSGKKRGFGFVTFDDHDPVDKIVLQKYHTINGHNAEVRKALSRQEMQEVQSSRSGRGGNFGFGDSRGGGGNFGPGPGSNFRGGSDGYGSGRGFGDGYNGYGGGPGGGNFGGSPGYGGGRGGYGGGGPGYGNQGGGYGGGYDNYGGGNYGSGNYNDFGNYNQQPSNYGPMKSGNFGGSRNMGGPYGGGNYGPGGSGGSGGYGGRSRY
UniProt P23769: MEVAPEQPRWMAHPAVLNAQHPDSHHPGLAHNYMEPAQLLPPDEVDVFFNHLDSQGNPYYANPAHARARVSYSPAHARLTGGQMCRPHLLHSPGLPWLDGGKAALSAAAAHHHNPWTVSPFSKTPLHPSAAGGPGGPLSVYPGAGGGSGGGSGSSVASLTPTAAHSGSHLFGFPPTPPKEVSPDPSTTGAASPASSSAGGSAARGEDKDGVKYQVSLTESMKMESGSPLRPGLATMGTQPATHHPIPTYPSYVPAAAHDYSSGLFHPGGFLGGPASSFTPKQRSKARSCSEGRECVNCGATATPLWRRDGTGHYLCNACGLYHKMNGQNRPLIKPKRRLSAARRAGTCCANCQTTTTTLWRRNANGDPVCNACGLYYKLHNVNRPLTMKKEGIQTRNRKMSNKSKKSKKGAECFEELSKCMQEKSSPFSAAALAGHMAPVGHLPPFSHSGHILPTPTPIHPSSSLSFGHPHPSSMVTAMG
UniProt P21741: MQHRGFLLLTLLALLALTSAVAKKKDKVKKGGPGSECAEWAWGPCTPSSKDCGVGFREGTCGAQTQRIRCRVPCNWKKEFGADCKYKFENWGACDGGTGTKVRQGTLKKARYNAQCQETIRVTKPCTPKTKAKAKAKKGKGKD
UniProt P23246: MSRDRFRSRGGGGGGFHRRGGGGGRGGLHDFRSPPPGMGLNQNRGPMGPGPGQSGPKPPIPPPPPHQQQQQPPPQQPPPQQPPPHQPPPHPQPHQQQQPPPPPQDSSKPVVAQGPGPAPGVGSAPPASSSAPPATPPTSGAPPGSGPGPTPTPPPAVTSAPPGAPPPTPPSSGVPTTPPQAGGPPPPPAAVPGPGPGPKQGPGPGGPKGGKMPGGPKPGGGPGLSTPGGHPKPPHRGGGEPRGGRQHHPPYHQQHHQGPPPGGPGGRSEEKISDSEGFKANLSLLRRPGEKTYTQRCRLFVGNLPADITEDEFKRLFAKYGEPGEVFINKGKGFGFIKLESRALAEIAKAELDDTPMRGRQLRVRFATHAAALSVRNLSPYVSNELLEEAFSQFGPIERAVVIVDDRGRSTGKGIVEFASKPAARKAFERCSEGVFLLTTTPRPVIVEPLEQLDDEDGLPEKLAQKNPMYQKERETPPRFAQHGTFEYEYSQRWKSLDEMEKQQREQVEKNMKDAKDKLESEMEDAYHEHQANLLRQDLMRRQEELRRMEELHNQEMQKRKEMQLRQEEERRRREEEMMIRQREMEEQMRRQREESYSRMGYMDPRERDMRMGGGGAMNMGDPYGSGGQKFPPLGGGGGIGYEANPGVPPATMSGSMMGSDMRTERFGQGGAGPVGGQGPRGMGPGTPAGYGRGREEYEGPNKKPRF

Row | Target | log2 fold change
1 | POLR2C (peptide sequence: PYANQPTVR, peptide start residue: 2) (UniProt P19387) | 0.153
2 | MSN (peptide sequence: DRSEEER, peptide start residue: 502) (UniProt P26038) | 0.111
3 | NF1 (peptide sequence: FDEQLPIK, peptide start residue: 17) (UniProt P21359) | 0.146
4 | H2AFX (peptide sequence: KTSATVGPK, peptide start residue: 120) (UniProt P16104) | -0.0875
5 | ARF4 (peptide sequence: MLLVDELR, peptide start residue: 110) (UniProt P18085) | -0.182
6 | TAL1 (peptide sequence: WRQQNVNGAFAELR, peptide start residue: 198) (UniProt P17542) | -0.284
7 | UniProt P17014 (peptide sequence: DTVFVNHMEEKPYK, peptide start residue: 229) | 0.329
8 | GNS (peptide sequence: TIDPELLGK, peptide start residue: 494) (UniProt P15586) | 0.0741
9 | CCNE1 (peptide sequence: GVADEDAHNIQTHR, peptide start residue: 351) (UniProt P24864) | 0.0366
10 | UniProt P19544 (peptide sequence: HHNMHQR, peptide start residue: 434) | -0.323
11 | UniProt P17030 (peptide sequence: QGKEPWILEVEFPHR, peptide start residue: 62) | -0.337
12 | ATF3 (peptide sequence: AEVAPEEDER, peptide start residue: 79) (UniProt P18847) | -0.368
13 | ABCD3 (peptide sequence: LITNSEEIAFYNGNKR, peptide start residue: 272) (UniProt P28288) | 0.0673
14 | ALAS2 (peptide sequence: GHCPFMLSELQDGK, peptide start residue: 68) (UniProt P22557) | -0.19
15 | IRF2 (peptide sequence: KIFQIPWMHAAR, peptide start residue: 32) (UniProt P14316) | -0.838
16 | UniProt P25098 (peptide sequence: ISDLGLACDFSKK, peptide start residue: 333) | -0.639
17 | TCF3 (peptide sequence: VRDINEAFKELGR, peptide start residue: 590) (UniProt P15923) | 0.712
18 | HNRNPL (peptide sequence: LCFSTAQHAS, peptide start residue: 580) (UniProt P14866) | 0.0831
19 | RRM1 (peptide sequence: DFSYNYFGFK, peptide start residue: 140) (UniProt P23921) | -0.264
20 | GSPT1 (peptide sequence: MDDPTVNWSNERYEECKEK, peptide start residue: 222) (UniProt P15170) | 0.0782
21 | PSMB1 (peptide sequence: LSEGFSIHTR, peptide start residue: 57) (UniProt P20618) | -0.4
22 | PSMA3 (peptide sequence: HVGMAVAGLLADAR, peptide start residue: 73) (UniProt P25788) | 0.107
23 | HPGD (peptide sequence: VALVTGAAQGIGR, peptide start residue: 7) (UniProt P15428) | -0.17
24 | HNRNPA2B1 (peptide sequence: DYFEEYGK, peptide start residue: 130) (UniProt P22626) | 0.211
25 | RPS2 (peptide sequence: EWMPVTK, peptide start residue: 59) (UniProt P15880) | 0.0917
26 | GATA2 (peptide sequence: VSYSPAHAR, peptide start residue: 70) (UniProt P23769) | 0.0171
27 | MDK (peptide sequence: VTKPCTPK, peptide start residue: 122) (UniProt P21741) | 0.295
28 | UniProt P28290 (peptide sequence: SKTPLVAR, peptide start residue: 1138) | -0.435
29 | SFPQ (peptide sequence: REEEMMIR, peptide start residue: 574) (UniProt P23246) | 0.447

Nos. 25–26 from above:
Row | Target | log2 fold change
25 | RPS2 (peptide sequence: EWMPVTK, peptide start residue: 59) (UniProt P15880) | 0.0917
26 | GATA2 (peptide sequence: VSYSPAHAR, peptide start residue: 70) (UniProt P23769) | 0.0171

From the supplement of paper PMC12819154, “High-throughput peptide-centric local stability assay extends protein–ligand identification to membrane proteins, tissues and bacteria” (Nature Structural & Molecular Biology, 2025)
